Our source for the binding values is publication PMC11665234.

Results are given in words; binding and its absence hold for the method and conditions named. In cells and extracts the contact can be indirect. Some entries that bind do so weakly or less than the wild type.

For the assay, the target named is T1, Tripartite motif 13 (human (endogenous in NSCLC cells)) (UniProt O60858).
T1 sequence: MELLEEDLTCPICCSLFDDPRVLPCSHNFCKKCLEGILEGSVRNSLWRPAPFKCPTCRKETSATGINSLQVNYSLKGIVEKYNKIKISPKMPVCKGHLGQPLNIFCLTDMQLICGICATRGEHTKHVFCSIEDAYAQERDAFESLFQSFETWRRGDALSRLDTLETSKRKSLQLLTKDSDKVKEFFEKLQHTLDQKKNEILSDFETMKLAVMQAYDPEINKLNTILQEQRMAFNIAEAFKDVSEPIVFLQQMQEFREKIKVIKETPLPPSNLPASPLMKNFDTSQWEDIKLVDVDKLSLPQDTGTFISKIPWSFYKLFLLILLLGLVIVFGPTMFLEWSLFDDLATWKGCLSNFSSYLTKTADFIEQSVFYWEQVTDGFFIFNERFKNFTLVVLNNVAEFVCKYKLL
Kind of assay: co-IP; cell lysate (150 mmol/L NaCl, 50 mmol/L Tris-HCl pH 7.6, 1% NP-40, 1 mmol/L EDTA) incubated with TRIM13 antibody or control IgG at 4 C, protein A/G plus agarose beads overnight at 4 C, three washes; Western blot for ANXA8. (In western blotting, separated proteins are transferred to a membrane and probed.)

B1: Annexin A8 (protein, UniProt P13928 1-327)
chain: MAWWKSWIEQEGVTVKSSSHFNPDPDAETLYKAMKGIGTNEQAIIDVLTKRSNTQRQQIAKSFKAQFGKDLTETLKSELSGKFERLIVALMYPPYRYEAKELHDAMKGLGTKEGVIIEILASRTKNQLREIMKAYEEDYGSSLEEDIQADTSGYLERILVCLLQGSRDDVSSFVDPGLALQDAQDLYAAGEKIRGTDEMKFITILCTRSATHLLRVFEEYEKIANKSIEDSIKSETHGSLEEAMLTVVKCTQNLHSYFAERLYYAMKGAGTRDGTLIRNIVSRSEIDLNLIKCHFKKMYGKTLSSMIMEDTSGDYKNALLSLVGSDP
With B1, the binding result is “binds”.
